Laboratory results taken from the supplement of paper PMC10849652.
Some of the results follow.

Sequences of proteins named here, by UniProt entry; tags and fusion partners are left off. A change or cut given only in a name is not applied to a line headed by its entry.
UniProt Q6P9B9, whole entry, looked up: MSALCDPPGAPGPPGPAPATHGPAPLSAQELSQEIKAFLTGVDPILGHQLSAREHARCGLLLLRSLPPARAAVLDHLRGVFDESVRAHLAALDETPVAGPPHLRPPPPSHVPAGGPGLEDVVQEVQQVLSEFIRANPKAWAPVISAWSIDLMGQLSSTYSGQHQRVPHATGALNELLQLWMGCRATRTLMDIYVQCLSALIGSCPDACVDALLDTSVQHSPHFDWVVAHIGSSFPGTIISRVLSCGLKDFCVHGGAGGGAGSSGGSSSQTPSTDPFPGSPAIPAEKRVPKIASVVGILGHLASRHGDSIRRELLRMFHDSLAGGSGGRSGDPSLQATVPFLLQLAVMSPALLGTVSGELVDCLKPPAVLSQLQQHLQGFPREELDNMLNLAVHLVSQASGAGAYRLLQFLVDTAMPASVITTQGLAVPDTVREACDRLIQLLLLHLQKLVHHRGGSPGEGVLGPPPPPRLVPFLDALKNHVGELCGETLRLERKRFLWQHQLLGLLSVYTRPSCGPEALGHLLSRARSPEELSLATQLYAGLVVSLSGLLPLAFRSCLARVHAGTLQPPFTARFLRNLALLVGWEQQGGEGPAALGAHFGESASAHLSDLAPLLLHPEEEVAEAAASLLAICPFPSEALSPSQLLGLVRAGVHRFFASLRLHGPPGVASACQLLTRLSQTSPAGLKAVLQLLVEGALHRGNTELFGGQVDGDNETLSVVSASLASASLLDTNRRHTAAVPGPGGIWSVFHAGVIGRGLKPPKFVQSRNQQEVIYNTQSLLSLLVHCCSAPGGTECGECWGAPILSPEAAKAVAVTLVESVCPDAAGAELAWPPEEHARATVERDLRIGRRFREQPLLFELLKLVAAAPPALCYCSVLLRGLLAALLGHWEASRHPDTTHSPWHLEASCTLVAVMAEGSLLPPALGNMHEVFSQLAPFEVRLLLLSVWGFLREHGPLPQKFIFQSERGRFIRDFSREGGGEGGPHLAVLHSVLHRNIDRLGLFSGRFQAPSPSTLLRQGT
UniProt Q9UI26: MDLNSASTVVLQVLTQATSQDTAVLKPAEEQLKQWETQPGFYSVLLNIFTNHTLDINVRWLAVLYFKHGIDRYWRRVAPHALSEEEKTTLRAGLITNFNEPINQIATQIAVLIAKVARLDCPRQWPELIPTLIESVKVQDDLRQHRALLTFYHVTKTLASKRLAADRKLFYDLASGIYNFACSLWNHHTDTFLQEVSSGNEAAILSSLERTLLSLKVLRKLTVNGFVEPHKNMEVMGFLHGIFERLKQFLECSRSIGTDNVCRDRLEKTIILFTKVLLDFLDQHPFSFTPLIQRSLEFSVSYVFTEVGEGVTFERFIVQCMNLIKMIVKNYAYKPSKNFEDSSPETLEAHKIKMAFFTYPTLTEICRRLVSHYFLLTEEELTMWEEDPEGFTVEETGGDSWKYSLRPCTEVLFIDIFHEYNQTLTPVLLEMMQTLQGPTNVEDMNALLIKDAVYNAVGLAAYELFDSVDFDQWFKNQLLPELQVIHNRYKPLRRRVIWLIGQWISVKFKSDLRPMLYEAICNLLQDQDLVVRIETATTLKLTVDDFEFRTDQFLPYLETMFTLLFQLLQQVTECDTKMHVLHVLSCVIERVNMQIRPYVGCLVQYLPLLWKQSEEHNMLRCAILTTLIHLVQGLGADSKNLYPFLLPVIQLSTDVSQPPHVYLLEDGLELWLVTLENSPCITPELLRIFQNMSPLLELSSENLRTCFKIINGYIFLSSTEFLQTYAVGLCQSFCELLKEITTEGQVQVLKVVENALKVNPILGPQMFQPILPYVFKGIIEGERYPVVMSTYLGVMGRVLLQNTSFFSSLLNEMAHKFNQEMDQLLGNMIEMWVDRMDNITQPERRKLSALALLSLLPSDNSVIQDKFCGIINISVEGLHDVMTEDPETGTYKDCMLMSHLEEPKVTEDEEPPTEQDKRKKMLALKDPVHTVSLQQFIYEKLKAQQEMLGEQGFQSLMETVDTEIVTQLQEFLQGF
UniProt P33947: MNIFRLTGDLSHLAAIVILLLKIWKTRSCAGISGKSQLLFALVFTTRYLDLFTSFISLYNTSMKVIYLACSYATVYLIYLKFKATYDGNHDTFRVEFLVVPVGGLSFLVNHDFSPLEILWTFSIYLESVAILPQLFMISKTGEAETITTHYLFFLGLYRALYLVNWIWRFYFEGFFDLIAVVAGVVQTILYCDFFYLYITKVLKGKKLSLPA
UniProt Q15652: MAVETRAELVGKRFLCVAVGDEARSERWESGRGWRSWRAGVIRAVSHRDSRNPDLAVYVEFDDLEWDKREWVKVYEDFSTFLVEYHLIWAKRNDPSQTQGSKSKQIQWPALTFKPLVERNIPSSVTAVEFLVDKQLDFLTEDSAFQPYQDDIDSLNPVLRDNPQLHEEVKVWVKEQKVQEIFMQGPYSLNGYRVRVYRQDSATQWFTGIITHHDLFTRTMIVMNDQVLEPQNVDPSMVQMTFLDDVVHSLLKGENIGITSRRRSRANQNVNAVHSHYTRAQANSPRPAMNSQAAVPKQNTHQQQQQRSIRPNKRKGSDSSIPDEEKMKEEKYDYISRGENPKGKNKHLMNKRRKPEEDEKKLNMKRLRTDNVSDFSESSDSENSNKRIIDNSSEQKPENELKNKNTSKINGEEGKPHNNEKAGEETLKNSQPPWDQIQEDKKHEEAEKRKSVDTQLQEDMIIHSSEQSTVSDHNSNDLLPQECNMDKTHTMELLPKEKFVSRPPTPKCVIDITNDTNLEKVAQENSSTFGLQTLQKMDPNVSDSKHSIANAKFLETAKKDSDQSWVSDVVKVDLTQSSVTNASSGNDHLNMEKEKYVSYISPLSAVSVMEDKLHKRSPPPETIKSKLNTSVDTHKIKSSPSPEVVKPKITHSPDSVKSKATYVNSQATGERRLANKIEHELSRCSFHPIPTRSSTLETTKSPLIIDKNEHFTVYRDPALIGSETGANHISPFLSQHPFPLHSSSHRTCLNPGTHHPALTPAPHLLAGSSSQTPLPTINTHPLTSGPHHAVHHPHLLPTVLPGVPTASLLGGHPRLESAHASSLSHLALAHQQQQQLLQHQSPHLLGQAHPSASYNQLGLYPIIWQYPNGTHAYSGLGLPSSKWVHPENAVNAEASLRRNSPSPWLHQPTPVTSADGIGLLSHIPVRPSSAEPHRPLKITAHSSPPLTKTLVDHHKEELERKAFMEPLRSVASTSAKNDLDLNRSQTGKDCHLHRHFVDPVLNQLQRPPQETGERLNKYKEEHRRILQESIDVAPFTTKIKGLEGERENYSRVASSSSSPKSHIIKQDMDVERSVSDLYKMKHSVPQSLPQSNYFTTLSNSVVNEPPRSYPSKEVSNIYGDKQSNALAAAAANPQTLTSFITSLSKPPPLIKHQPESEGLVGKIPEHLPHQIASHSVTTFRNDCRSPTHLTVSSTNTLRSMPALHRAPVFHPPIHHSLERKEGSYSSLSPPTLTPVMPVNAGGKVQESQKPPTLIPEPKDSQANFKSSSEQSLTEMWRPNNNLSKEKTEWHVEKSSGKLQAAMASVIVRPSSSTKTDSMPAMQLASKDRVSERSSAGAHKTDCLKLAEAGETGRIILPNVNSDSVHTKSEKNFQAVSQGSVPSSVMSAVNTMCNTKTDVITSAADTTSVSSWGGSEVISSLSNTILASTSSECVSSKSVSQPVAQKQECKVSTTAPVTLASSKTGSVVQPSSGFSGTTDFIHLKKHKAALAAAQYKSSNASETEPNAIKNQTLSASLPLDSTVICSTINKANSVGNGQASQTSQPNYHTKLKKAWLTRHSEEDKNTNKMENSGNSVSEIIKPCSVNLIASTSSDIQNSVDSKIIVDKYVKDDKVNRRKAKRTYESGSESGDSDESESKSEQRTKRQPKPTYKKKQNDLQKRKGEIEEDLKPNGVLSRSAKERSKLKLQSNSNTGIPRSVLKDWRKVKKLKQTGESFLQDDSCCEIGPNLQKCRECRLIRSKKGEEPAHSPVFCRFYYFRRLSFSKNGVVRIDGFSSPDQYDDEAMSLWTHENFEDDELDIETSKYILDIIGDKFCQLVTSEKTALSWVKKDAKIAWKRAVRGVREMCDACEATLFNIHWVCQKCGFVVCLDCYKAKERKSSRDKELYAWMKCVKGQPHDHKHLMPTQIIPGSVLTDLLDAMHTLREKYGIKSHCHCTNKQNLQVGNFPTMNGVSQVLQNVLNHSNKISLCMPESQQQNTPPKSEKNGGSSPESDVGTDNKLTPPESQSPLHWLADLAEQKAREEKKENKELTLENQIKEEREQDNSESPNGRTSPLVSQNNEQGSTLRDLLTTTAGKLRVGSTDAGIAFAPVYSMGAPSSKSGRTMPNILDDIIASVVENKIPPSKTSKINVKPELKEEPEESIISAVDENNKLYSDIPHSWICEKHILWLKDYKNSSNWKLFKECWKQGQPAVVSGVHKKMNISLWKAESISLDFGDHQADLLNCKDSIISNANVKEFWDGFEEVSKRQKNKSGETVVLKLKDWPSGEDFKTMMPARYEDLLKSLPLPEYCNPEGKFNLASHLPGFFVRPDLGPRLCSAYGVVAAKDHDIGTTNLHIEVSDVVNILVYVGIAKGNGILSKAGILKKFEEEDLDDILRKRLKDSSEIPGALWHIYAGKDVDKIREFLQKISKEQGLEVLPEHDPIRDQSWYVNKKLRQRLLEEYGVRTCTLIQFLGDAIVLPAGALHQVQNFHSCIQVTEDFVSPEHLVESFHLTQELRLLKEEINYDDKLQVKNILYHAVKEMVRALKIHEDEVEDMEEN
UniProt Q75QN2, whole entry, looked up: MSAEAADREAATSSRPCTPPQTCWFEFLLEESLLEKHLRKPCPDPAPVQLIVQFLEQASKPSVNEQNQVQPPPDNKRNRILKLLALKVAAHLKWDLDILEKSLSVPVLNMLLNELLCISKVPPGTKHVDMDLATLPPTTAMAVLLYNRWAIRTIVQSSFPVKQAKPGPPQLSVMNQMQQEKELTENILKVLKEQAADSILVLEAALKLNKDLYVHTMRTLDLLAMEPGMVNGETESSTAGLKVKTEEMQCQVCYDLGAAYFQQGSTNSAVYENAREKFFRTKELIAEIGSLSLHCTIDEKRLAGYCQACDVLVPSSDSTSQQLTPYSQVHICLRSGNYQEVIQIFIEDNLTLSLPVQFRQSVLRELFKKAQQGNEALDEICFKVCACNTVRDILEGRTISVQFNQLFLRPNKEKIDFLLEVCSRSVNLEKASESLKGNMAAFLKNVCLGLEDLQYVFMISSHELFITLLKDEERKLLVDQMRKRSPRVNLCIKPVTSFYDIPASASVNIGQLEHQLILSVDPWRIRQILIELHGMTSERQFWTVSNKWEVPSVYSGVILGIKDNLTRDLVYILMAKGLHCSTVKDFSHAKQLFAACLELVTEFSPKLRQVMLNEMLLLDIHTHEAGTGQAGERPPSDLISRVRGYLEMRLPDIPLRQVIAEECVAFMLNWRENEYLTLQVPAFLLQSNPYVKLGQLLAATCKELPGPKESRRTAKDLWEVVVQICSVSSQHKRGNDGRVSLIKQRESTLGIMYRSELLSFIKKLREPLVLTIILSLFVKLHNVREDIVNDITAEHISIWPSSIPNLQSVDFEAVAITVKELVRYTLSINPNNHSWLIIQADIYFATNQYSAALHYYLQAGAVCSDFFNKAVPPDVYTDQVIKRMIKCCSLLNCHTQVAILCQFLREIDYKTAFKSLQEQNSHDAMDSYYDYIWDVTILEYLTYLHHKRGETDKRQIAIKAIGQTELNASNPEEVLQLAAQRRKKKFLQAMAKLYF
UniProt Q8NB78: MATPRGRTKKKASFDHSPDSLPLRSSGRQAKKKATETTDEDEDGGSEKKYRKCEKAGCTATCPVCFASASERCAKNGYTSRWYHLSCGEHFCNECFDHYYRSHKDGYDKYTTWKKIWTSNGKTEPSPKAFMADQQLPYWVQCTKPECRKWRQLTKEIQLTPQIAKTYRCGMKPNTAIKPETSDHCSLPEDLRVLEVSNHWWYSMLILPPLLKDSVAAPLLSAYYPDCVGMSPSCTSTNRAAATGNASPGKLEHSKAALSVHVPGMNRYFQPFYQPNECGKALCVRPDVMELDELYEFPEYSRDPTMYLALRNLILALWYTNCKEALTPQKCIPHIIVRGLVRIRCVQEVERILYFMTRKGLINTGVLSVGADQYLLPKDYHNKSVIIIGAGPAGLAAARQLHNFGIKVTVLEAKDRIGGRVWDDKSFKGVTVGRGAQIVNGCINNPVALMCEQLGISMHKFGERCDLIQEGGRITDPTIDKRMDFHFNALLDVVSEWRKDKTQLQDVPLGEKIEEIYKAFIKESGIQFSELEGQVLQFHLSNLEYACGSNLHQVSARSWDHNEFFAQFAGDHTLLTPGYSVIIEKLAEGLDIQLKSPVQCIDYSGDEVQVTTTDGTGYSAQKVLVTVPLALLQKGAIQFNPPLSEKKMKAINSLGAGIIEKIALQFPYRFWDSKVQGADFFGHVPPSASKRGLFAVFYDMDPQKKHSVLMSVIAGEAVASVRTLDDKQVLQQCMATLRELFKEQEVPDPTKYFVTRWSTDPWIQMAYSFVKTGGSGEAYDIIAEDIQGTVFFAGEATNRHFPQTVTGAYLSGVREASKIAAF

Assays:
Experiment in all cases: log2 fold change, soluble protein after heating vs DMSO (PISA); higher = thermal stabilisation; K562 lysate, 10 uM; active = over 0.2 and 3.5 SD of the protein, either way, in both replicates (recomputed)
lapatinib = compound: CS(=O)(=O)CCNCc1ccc(-c2ccc3ncnc(Nc4ccc(OCc5cccc(F)c5)c(Cl)c4)c3c2)o1 [lapatinib]
Summary of the method: (§1)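 To prepare the extract, K562 pellets were dounce-homogenised in PBS pH 7.4 with 1 mM MgCl2, giving crude material at 1 mg/mL protein. This was treated with 10 μM compound for 30 min, then heated in aliquots for 3 min over 48°C-58°C before pooling and addition of NP-40 to 0.5% at 4°C. Centrifugation at 21,000xg for 90 min left soluble protein in the supernatant, which TMTpro 16plex LC-MS/MS quantified with equalised channel sums. Results are log-two fold changes in thermal stability compared with solvent controls, from duplicates.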

pictilisib = compound: CS(=O)(=O)N1CCN(Cc2cc3nc(-c4cccc5[nH]ncc45)nc(N4CCOCC4)c3s2)CC1 [pictilisib]
Summary of the method: as §1

crizotinib = compound: C[C@@H](Oc1cc(-c2cnn(C3CCNCC3)c2)cnc1N)c1c(Cl)ccc(F)c1Cl [crizotinib]
Summary of the method: as §1

[1] = compound: C[C@H](C1=CC=C(C=C1)C(=O)NC2=C3C=CNC3=NC=C2)N
Summary of the method: as §1

duvelisib = compound: C[C@H](Nc1ncnc2nc[nH]c12)c1cc2cccc(Cl)c2c(=O)n1-c1ccccc1 [duvelisib]
Summary of the method: as §1

gandotinib = compound: Cc1cc(Nc2cc(CN3CCOCC3)c3nc(C)c(Cc4ccc(Cl)cc4F)n3n2)n[nH]1 [gandotinib]
Summary of the method: as §1

tozasertib = compound: Cc1cc(Nc2cc(N3CCN(C)CC3)nc(Sc3ccc(NC(=O)C4CC4)cc3)n2)n[nH]1 [tozasertib]
Summary of the method: as §1

doramapimod = compound: Cc1ccc(-n2nc(C(C)(C)C)cc2NC(=O)Nc2ccc(OCCN3CCOCC3)c3ccccc23)cc1 [doramapimod]
Summary of the method: as §1

bafetinib = compound: Cc1ccc(NC(=O)c2ccc(CN3CC[C@H](N(C)C)C3)c(C(F)(F)F)c2)cc1Nc1nccc(-c2cncnc2)n1 [bafetinib]
Summary of the method: as §1

[2] = compound: Cc1cccc(CC(=O)N2CCc3c2ccc(-c2cn(C)c4ncnc(N)c24)c3F)n1
Summary of the method: as §1

nilotinib = compound: Cc1cn(-c2cc(NC(=O)c3ccc(C)c(Nc4nccc(-c5cccnc5)n4)c3)cc(C(F)(F)F)c2)cn1 [nilotinib]
Summary of the method: as §1

[3] = compound: Cc1nc(Nc2n[nH]c3c2CN(C(=O)N[C@H](CN(C)C)c2ccccc2)C3(C)C)c2sccc2n1
Summary of the method: as §1

dasatinib = compound: Cc1nc(Nc2ncc(C(=O)Nc3c(C)cccc3Cl)s2)cc(N2CCN(CCO)CC2)n1 [dasatinib]
Summary of the method: as §1

[4] = compound: Cc1ncc(-c2ccnc(Nc3ccc(S(C)(=O)=O)cc3)n2)n1C(C)C
Summary of the method: as §1

[5] = compound: Cn1cc(-c2ccc3c(c2)CCN3C(=O)Cc2cccc(C(F)(F)F)c2)c2c(N)ncnc21
Summary of the method: as §1

quisinostat = compound: Cn1cc(CNCC2CCN(c3ncc(C(=O)NO)cn3)CC2)c2ccccc21 [quisinostat]
Summary of the method: as §1

tipifarnib = compound: Cn1cncc1[C@@](N)(c1ccc(Cl)cc1)c1ccc2c(c1)c(-c1cccc(Cl)c1)cc(=O)n2C [tipifarnib]
Summary of the method: as §1

[6] = compound: NC(=O)Nc1cc(-c2cccc(F)c2)sc1C(=O)N[C@H]1CCCNC1
Summary of the method: as §1

[7] = compound: NC(=O)c1cnc(N[C@@H]2CCCC[C@@H]2N)nc1Nc1cccc(-n2nccn2)c1
Summary of the method: as §1

[8] = compound: NC1(c2ccc(-c3nc4ccn5c(=O)[nH]nc5c4cc3-c3ccccc3)cc2)CCC1
Summary of the method: as §1

Measured: log2 fold change

INTS5 (UniProt Q6P9B9)
inactive: lapatinib -0.688 | pictilisib 0.018 | crizotinib -0.082 | [1] 0.048 | duvelisib -0.022 | gandotinib -0.235 | tozasertib 0.009 | doramapimod -0.002 | bafetinib -0.092 | [2] 0.054 | nilotinib 0.11 | [3] -0.093 | dasatinib -0.012 | [4] 0.062 | [5] 0.055 | quisinostat -0.002 | tipifarnib 0.294 | [6] 0.043 | [7] -0.064 | [8] 0.081

KCT2 (UniProt Q8NC54)
active: [1] -0.331 | gandotinib 0.277
inactive: lapatinib -0.005 | pictilisib -0.018 | crizotinib 0.048 | duvelisib 0.018 | tozasertib 0.005 | doramapimod -0.028 | bafetinib -0.023 | [2] 0.099 | nilotinib -0.034 | [3] 0.008 | dasatinib 0.025 | [4] -0.025 | [5] 0.043 | quisinostat 0.031 | tipifarnib 0.001 | [6] 0.024 | [7] 0.051 | [8] 0.005

IPO11 isoform 2 (UniProt Q9UI26)
inactive: lapatinib -0.019 | pictilisib 0 | crizotinib -0.05 | [1] -0.002 | duvelisib -0.002 | gandotinib -0.022 | tozasertib -0.004 | doramapimod 0.041 | bafetinib -0.058 | [2] 0 | nilotinib 0.005 | [3] 0.02 | dasatinib -0.016 | [4] -0.004 | [5] 0.011 | quisinostat -0.04 | tipifarnib -0.024 | [6] 0.015 | [7] 0.011 | [8] -0.029

ISYNA1 (UniProt Q9NPH2)
inactive: lapatinib -0.007 | pictilisib -0.03 | crizotinib 0.016 | [1] -0.067 | duvelisib 0.024 | gandotinib 0.083 | tozasertib 0.029 | doramapimod 0.035 | bafetinib 0.045 | [2] 0.047 | nilotinib 0.039 | [3] -0.029 | dasatinib 0.01 | [4] -0.032 | [5] -0.013 | quisinostat -0.022 | tipifarnib -0.013 | [6] 0.006 | [7] 0.002 | [8] -0.036

KDELR2 (UniProt P33947)
inactive: lapatinib -0.022 | pictilisib 0.003 | crizotinib 0.005 | [1] -0.009 | duvelisib 0.019 | gandotinib -0.084 | tozasertib -0.062 | doramapimod -0.071 | bafetinib -0.038 | [2] 0.137 | nilotinib 0.014 | [3] 0.023 | dasatinib 0 | [4] 0.011 | [5] -0.04 | quisinostat -0.094 | tipifarnib -0.112 | [6] -0.025 | [7] 0.009 | [8] -0.002

IRF2BP2 (UniProt Q7Z5L9)
inactive: lapatinib -0.011 | pictilisib -0.024 | crizotinib 0.006 | [1] -0.021 | duvelisib -0.027 | gandotinib 0.052 | tozasertib -0.001 | doramapimod 0.02 | bafetinib 0.036 | [2] -0.024 | nilotinib 0 | [3] 0.032 | dasatinib 0.018 | [4] 0.014 | [5] -0.03 | quisinostat -0.026 | tipifarnib -0.003 | [6] 0.028 | [7] -0.004 | [8] 0.02

KBTBD8 (UniProt Q8NFY9)
inactive: lapatinib 0.016 | pictilisib 0.026 | crizotinib -0.047 | [1] -0.011 | duvelisib -0.038 | gandotinib -0.003 | tozasertib 0.006 | doramapimod -0.012 | bafetinib -0.133 | [2] 0.053 | nilotinib 0.019 | [3] 0.013 | dasatinib 0.005 | [4] 0.02 | [5] 0.008 | quisinostat 0.043 | tipifarnib 0.033 | [6] -0.015 | [7] -0.033 | [8] 0

JMJD1C (UniProt Q15652)
inactive: lapatinib -0.073 | pictilisib -0.128 | crizotinib 0.022 | [1] 0.013 | duvelisib -0.026 | gandotinib -0.031 | tozasertib 0.01 | doramapimod -0.032 | bafetinib 0.013 | [2] 0 | nilotinib 0.026 | [3] -0.024 | dasatinib -0.012 | [4] 0 | [5] -0.001 | quisinostat -0.033 | tipifarnib -0.036 | [6] 0.057 | [7] 0.023 | [8] 0.073

IRF2BPL (UniProt Q9H1B7)
inactive: lapatinib 0.017 | pictilisib 0.024 | crizotinib -0.006 | [1] -0.216 | duvelisib 0.006 | gandotinib 0.07 | tozasertib -0.005 | doramapimod -0.004 | bafetinib -0.015 | [2] 0.075 | nilotinib 0.001 | [3] 0.005 | dasatinib -0.043 | [4] 0.054 | [5] -0.059 | quisinostat 0.032 | tipifarnib -0.069 | [6] -0.01 | [7] 0 | [8] 0

INTS8 (UniProt Q75QN2)
inactive: lapatinib 0.028 | pictilisib 0.104 | crizotinib -0.046 | [1] 0.015 | duvelisib -0.051 | gandotinib -0.163 | tozasertib 0.04 | doramapimod 0.021 | bafetinib -0.142 | [2] 0.036 | nilotinib 0.035 | [3] 0.044 | dasatinib -0.072 | [4] 0.049 | [5] 0.021 | quisinostat 0.003 | tipifarnib -0.009 | [6] 0.067 | [7] -0.035 | [8] -0.029

KDM1B (UniProt Q8NB78)
inactive: lapatinib -0.081 | pictilisib -0.023 | crizotinib -0.081 | [1] 0.027 | duvelisib 0.135 | gandotinib 0.035 | tozasertib -0.058 | doramapimod 0.014 | bafetinib -0.001 | [2] 0.084 | nilotinib 0.049 | [3] -0.019 | dasatinib -0.039 | [4] -0.077 | [5] 0.049 | quisinostat -0.041 | tipifarnib 0.105 | [6] 0.027 | [7] 0.02 | [8] 0.054

KARS1 (UniProt Q15046)
inactive: lapatinib -0.002 | pictilisib 0 | crizotinib 0.003 | [1] 0.036 | duvelisib 0.004 | gandotinib -0.082 | tozasertib 0.025 | doramapimod 0.007 | bafetinib -0.025 | [2] -0.026 | nilotinib -0.017 | [3] -0.01 | dasatinib -0.031 | [4] -0.029 | [5] 0.02 | quisinostat 0.034 | tipifarnib 0.02 | [6] 0.004 | [7] 0.013 | [8] 0.02

IREB2 (UniProt P48200)
inactive: lapatinib -0.013 | pictilisib -0.001 | crizotinib -0.002 | [1] 0.003 | duvelisib -0.005 | gandotinib -0.051 | tozasertib -0.021 | doramapimod -0.012 | bafetinib -0.043 | [2] -0.002 | nilotinib -0.022 | [3] -0.004 | dasatinib 0.008 | [4] 0.008 | [5] 0.015 | quisinostat 0.019 | tipifarnib 0.027 | [6] 0.03 | [7] 0.05 | [8] 0.016

Taken from above (4 entries):
IRF2BPL (UniProt Q9H1B7)
inactive: lapatinib 0.017 | pictilisib 0.024 | crizotinib -0.006 | [1] -0.216 | duvelisib 0.006 | gandotinib 0.07 | tozasertib -0.005 | doramapimod -0.004 | bafetinib -0.015 | [2] 0.075 | nilotinib 0.001 | [3] 0.005 | dasatinib -0.043 | [4] 0.054 | [5] -0.059 | quisinostat 0.032 | tipifarnib -0.069 | [6] -0.01 | [7] 0 | [8] 0

INTS8 (UniProt Q75QN2)
inactive: lapatinib 0.028 | pictilisib 0.104 | crizotinib -0.046 | [1] 0.015 | duvelisib -0.051 | gandotinib -0.163 | tozasertib 0.04 | doramapimod 0.021 | bafetinib -0.142 | [2] 0.036 | nilotinib 0.035 | [3] 0.044 | dasatinib -0.072 | [4] 0.049 | [5] 0.021 | quisinostat 0.003 | tipifarnib -0.009 | [6] 0.067 | [7] -0.035 | [8] -0.029

KDM1B (UniProt Q8NB78)
inactive: lapatinib -0.081 | pictilisib -0.023 | crizotinib -0.081 | [1] 0.027 | duvelisib 0.135 | gandotinib 0.035 | tozasertib -0.058 | doramapimod 0.014 | bafetinib -0.001 | [2] 0.084 | nilotinib 0.049 | [3] -0.019 | dasatinib -0.039 | [4] -0.077 | [5] 0.049 | quisinostat -0.041 | tipifarnib 0.105 | [6] 0.027 | [7] 0.02 | [8] 0.054

KARS1 (UniProt Q15046)
inactive: lapatinib -0.002 | pictilisib 0 | crizotinib 0.003 | [1] 0.036 | duvelisib 0.004 | gandotinib -0.082 | tozasertib 0.025 | doramapimod 0.007 | bafetinib -0.025 | [2] -0.026 | nilotinib -0.017 | [3] -0.01 | dasatinib -0.031 | [4] -0.029 | [5] 0.02 | quisinostat 0.034 | tipifarnib 0.02 | [6] 0.004 | [7] 0.013 | [8] 0.02

The list continues:

IPO8 (UniProt O15397)
inactive: lapatinib -0.026 | pictilisib 0.023 | crizotinib -0.037 | [1] -0.006 | duvelisib 0.015 | gandotinib -0.149 | tozasertib 0.001 | doramapimod -0.001 | bafetinib -0.034 | [2] 0.017 | nilotinib -0.042 | [3] 0.028 | dasatinib 0.008 | [4] -0.004 | [5] -0.006 | quisinostat -0.016 | tipifarnib 0.031 | [6] 0.011 | [7] 0.022 | [8] -0.005

KDM1A (UniProt O60341)
inactive: lapatinib -0.01 | pictilisib -0.029 | crizotinib -0.036 | [1] -0.055 | duvelisib -0.025 | gandotinib -0.056 | tozasertib -0.031 | doramapimod 0.015 | bafetinib -0.016 | [2] 0.025 | nilotinib -0.009 | [3] 0.007 | dasatinib -0.023 | [4] 0.005 | [5] 0.012 | quisinostat -0.045 | tipifarnib -0.052 | [6] 0.029 | [7] 0.007 | [8] -0.026

JPT1 (UniProt Q9UK76)
inactive: lapatinib 0.016 | pictilisib -0.081 | crizotinib 0.022 | [1] 0.014 | duvelisib 0.06 | gandotinib 0.009 | tozasertib -0.015 | doramapimod -0.015 | bafetinib -0.018 | [2] 0.022 | nilotinib -0.019 | [3] 0.002 | dasatinib -0.013 | [4] 0.002 | [5] -0.039 | quisinostat 0.007 | tipifarnib 0.045 | [6] -0.017 | [7] -0.044 | [8] 0.005
